This assay has as its target Dual specificity tyrosine-phosphorylation-regulated kinase 1A (DYRK1A), endogenous, mouse brain (mouse (endogenous in adult mouse brain)) (UniProt Q61214). Briefly: co-IP; anti-DYRK1A mAb, protein G-Sepharose; membrane-associated fraction of adult mouse brain solubilized in 10 mM HEPES pH 7.4, 150 mM NaCl, 1 mM EDTA, 0.1 mM MgCl2, 1% NP-40; overnight 4°C; Western blot with anti-GluN2A; mouse IgG as control. On the technique in general: Immunoblotting shows a protein as a band on a membrane.

No constants are given. Whether binding was seen depends on the method and setting. In cells and extracts the contact can be indirect. Some results given as binding are weak or reduced against the parent protein; the word gives no strength.

“NMDA receptor subunit GluN2A, endogenous, mouse brain (from UniProt P35436 23-1464)”: the binding entry is “binds”.

The values are drawn from article PMC4201086.
